Results as given in the supplement of paper PMC7752906.
Where a name gives a salt, the structure may show the parent alone. The list shows a part of the results. Single values are uncertain here, since repeats match poorly.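 About 40 Schistosoma mansoni schistosomula per well were imaged over time in bright field and compared with 0.1% DMSO wells. A drug counts as a hit if its Mahalanobis distance reaches 2.47 or more, three standard deviations above the DMSO control mean. Degeneracy is the fraction of worms scored opaque.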

Tested on: Schistosoma mansoni schistosomula
Test: degeneracy (percent of somules classified as degenerate/opaque); higher = more parasite degeneration/death; extreme values may be limits of the assay
Conditions: 10 µM; 72 h

SMILES	degeneracy [%]
CC(=O)N(CC(O)CO)c1c(I)c(C(=O)NCCO)c(I)c(C(=O)NCC(O)CO)c1I (stereo unspecified) [Ioxilan]	2.94
COC(=O)Nc1nc2cc(Sc3ccccc3)ccc2[nH]1 [Fenbendazole]	100
CC(=O)N(CC(O)CO)c1c(I)c(C(=O)NCC(O)CO)c(I)c(C(=O)NCC(O)CO)c1I (stereo unspecified) [Iohexol]	3.03
Clc1cccc(Cl)c1NC1=NCCN1 [Clonidine]	4.55
CO[C@H]1/C=C/O[C@@]2(C)Oc3c(C)c(O)c4c(O)c(c5c(nc6cc(C)ccn65)c4c3C2=O)NC(=O)/C(C)=C\C=C\[C@H](C)[C@H](O)[C@@H](C)[C@@H](O)[C@@H](C)[C@H](OC(C)=O)[C@@H]1C [Rifaximin]	3.7
CCCNC(=O)NS(=O)(=O)c1ccc(Cl)cc1 [Chlorpropamide]	5.13
CC(=O)O[C@]1(C(C)=O)CC[C@H]2[C@@H]3C=C(Cl)C4=CC(=O)CC[C@]4(C)[C@H]3CC[C@@]21C [Chlormadinone Acetate]	5.56
CN(C)C(=N)NC(=N)N [metformin]	3.03
CNCCc1ccccn1 [Betahistine]	10.5
CC=CC(=O)N(CC)c1ccccc1C [Crotamiton]	3.03
CCCCCCCCCCCCCCCC(=O)OC[C@H](O)[C@H]1OC(=O)C(O)=C1O [Ascorbyl Palmitate]	46.7
O=C(c1ccc(F)cc1)C1CCN(CCn2c(=O)[nH]c3ccccc3c2=O)CC1 [Ketanserin Tartrate]	4.17
C[C@H](C(=O)O)c1cccc(C(=O)c2ccccc2)c1 [Dexketoprofen]	2.63
CCN(CC)C(=O)c1ccc(O)c(OC)c1 [Ethamivan]	3.45
CC(=O)[C@@]1(O)CC[C@H]2[C@@H]3CCC4=CC(=O)CC[C@]4(C)[C@H]3CC[C@@]21C [Hydroxyprogesterone]	16
CN(C)CCOC(c1ccccc1)c1ccccc1.Cn1c(=O)c2[nH]c(Cl)nc2n(C)c1=O [Dimenhydrinate]	11.1
O=C1NCC2(CCN(CCc3ccccc3)CC2)O1 [Fenspiride Hydrochloride]	10
Cc1cc2nc3c(=O)[nH]c(=O)nc-3n(C[C@H](O)[C@H](O)[C@H](O)CO)c2cc1C [riboflavin]	0
CCCNC(C)(C)COC(=O)c1ccccc1 [Meprylcaine Hydrochloride]	13.6
CCC1(C)CC(=O)NC1=O (stereo unspecified) [Ethosuximide]	5.56
CC(=O)Nc1ccc(OC(C)=O)cc1 [Diacetamate]	6.06

SMILES	degeneracy [%]
CCc1nn(CCCN2CCN(c3cccc(Cl)c3)CC2)c(=O)n1CCOc1ccccc1 [Nefazodone]	25.7
O=S(=O)(c1cccc2cnccc12)N1CCCNCC1 [Fasudil Hydrochloride]	3.45
CCC(C)(C)C(=O)O[C@H]1C[C@@H](C)C=C2C=C[C@H](C)[C@H](CC[C@@H]3C[C@@H](O)CC(=O)O3)[C@H]21 [Simvastatin]	100
C[C@@H]1CN(c2c(F)c(F)c3c(=O)c(C(=O)O)cn(C4CC4)c3c2F)C[C@H](C)N1 [Orbifloxacin]	9.09
O=[N+]([O-])c1ccc(O)c2ncccc12 [Nitroxoline]	100
CC(O)(CC(=O)O)CC(=O)O [Meglutol]	9.68
NNC(=O)c1ccncc1.Nc1ccc(C(=O)O)c(O)c1 [Pasiniazid]	0
O=C(O)c1ccccc1Nc1cccc(C(F)(F)F)c1 [Flufenamic Acid]	100
CC(=O)Nc1ccc(S(=O)(=O)c2ccc(NC(C)=O)cc2)cc1 [Acedapsone]	7.69
O=C1O[C@H]([C@@H](O)CO)C(O)=C1O [Ascorbic Acid]	0
Clc1ccc(C(c2ccccc2Cl)C(Cl)Cl)cc1 (stereo unspecified) [Mitotane]	100
CCCCN1CCCC[C@H]1C(=O)Nc1c(C)cccc1C [Levobupivacaine]	7.89
Nc1ccc(C(=O)O)c(O)c1 [Aminosalicylic Acid]	4.17
Nc1nc(/C(=C/CC(=O)O)C(=O)N[C@@H]2C(=O)N3C(C(=O)O)=CCS[C@H]23)cs1 [Ceftibuten]	9.09
CN(C)CCOC(=O)C(c1ccccc1)C1(O)CCCC1 (stereo unspecified) [Cyclopentolate Hydrochloride]	12
CCN(CC)CCNC(=O)c1cc(Br)c(N)cc1OC [Bromopride]	3.12
OC(CCN1CCCCC1)(c1ccccc1)c1ccccc1 [Pridinol]	26.1
CCCCC(=O)N(Cc1ccc(-c2ccccc2-c2nnn[nH]2)cc1)[C@H](C(=O)O)C(C)C [Valsartan]	5.88
O=C(O)CCC(=O)c1ccc(-c2ccccc2)cc1 [Fenbufen]	5.13
N[C@@H](Cc1ccc(O)c(O)c1)C(=O)O [Levodopa]	4.88
CN1CCN2c3ccccc3Cc3ccccc3C2C1 (stereo unspecified) [Mianserin]	100

SMILES	degeneracy [%]
C[C@H](CCC(=O)O)[C@H]1CC[C@H]2[C@@H]3C(=O)C[C@@H]4CC(=O)CC[C@]4(C)[C@H]3CC(=O)[C@]12C [Dehydrocholic Acid]	7.89
O=C1c2c(O)ccc(O)c2C(=O)c2c(NCCNCCO)ccc(NCCNCCO)c21 [Mitoxantrone]	75
O=C(NC(Cc1cc(=O)[nH]c2ccccc12)C(=O)O)c1ccc(Cl)cc1 (stereo unspecified) [Rebamipide]	2.63
OC[C@H]1O[C@@H](O[C@H]2[C@H](O)[C@@H](O)C(O)O[C@@H]2CO)[C@H](O)[C@@H](O)[C@H]1O (stereo partly specified) [Lactose Monohydrate]	12.5
CC(C)(C)NC[C@H](O)COc1cccc2c1CCCC2=O [Levobunolol]	6.67
CC(C)(C)NC[C@H](O)COc1cccc2c1CCCC2=O [Levobunolol Hydrochloride]	5.71
C[N+](C)(C)CCOC(N)=O [Carbachol]	0
CC1(C)O[C@@H]2C[C@H]3[C@@H]4C[C@H](F)C5=CC(=O)CC[C@]5(C)[C@H]4[C@@H](O)C[C@]3(C)[C@]2(C(=O)CO)O1 [Flurandrenolide]	2.33
CCN1CCCC1CNC(=O)c1cc(S(N)(=O)=O)ccc1OC (stereo unspecified) [Sulpiride]	3.7
O=C(O)c1cccnc1 [Niacin]	11.9
Cc1cccc(N(C)C(=S)Oc2ccc3ccccc3c2)c1 [Tolnaftate]	24.1
O=c1[nH]c(=O)n([C@H]2C[C@H](O)[C@@H](CO)O2)cc1I [Idoxuridine]	0
C#C[C@]1(O)CC[C@H]2[C@@H]3CCC4=Cc5oncc5C[C@]4(C)[C@H]3CC[C@@]21C [Danazol]	58.8
CCOc1ccc(Cc2nccc3cc(OCC)c(OCC)cc23)cc1OCC [Ethaverine Hydrochloride]	21.6
O=C(Nc1ccc([N+](=O)[O-])cc1Cl)c1cc(Cl)ccc1O [niclosamide]	100
CC/C=C\C/C=C\C/C=C\C/C=C\C/C=C\C/C=C\CCC(=O)O [Doconexent]	16.2
CCC[C@@H]1C[C@@H](C(=O)N[C@@H]([C@H]2O[C@H](SC)[C@H](O)[C@@H](O)[C@H]2O)[C@@H](C)O)N(C)C1 [Lincomycin]	9.09
O=c1cc[nH]c(=O)[nH]1 [Uracil]	9.68
CCCCOc1ccc(C(=O)CCN2CCCCC2)cc1 [Dyclonine Hydrochloride]	7.69
CC(C)(C)CC(C)(C)c1ccc(OCCOCC[N+](C)(C)Cc2ccccc2)cc1 [Benzethonium Chloride]	100
Cn1nnc2c(C(N)=O)ncn2c1=O [Temozolomide]	11.9

Looked up one by one from the list above (7):
SMILES	degeneracy [%]
CC1(C)O[C@@H]2C[C@H]3[C@@H]4C[C@H](F)C5=CC(=O)CC[C@]5(C)[C@H]4[C@@H](O)C[C@]3(C)[C@]2(C(=O)CO)O1 [Flurandrenolide]	2.33
O=C(Nc1ccc([N+](=O)[O-])cc1Cl)c1cc(Cl)ccc1O [niclosamide]	100
O=c1[nH]c(=O)n([C@H]2C[C@H](O)[C@@H](CO)O2)cc1I [Idoxuridine]	0
CCCCOc1ccc(C(=O)CCN2CCCCC2)cc1 [Dyclonine Hydrochloride]	7.69
OC[C@H]1O[C@@H](O[C@H]2[C@H](O)[C@@H](O)C(O)O[C@@H]2CO)[C@H](O)[C@@H](O)[C@H]1O (stereo partly specified) [Lactose Monohydrate]	12.5
CCC[C@@H]1C[C@@H](C(=O)N[C@@H]([C@H]2O[C@H](SC)[C@H](O)[C@@H](O)[C@H]2O)[C@@H](C)O)N(C)C1 [Lincomycin]	9.09
Cc1cccc(N(C)C(=S)Oc2ccc3ccccc3c2)c1 [Tolnaftate]	24.1

Next records follow:

SMILES	degeneracy [%]
CC(C)(C)NC(=O)[C@H]1CC[C@H]2[C@@H]3CC[C@H]4NC(=O)C=C[C@]4(C)[C@H]3CC[C@]12C [Finasteride]	10.5
C=C1CC[C@H](O)C/C1=C/C=C1\CCC[C@]2(C)[C@@H]([C@H](C)/C=C/[C@H](C)C(C)C)CC[C@@H]12 [Ergocalciferol]	0
CC(C)C(=O)c1c(C(C)C)nn2ccccc12 [Ibudilast]	0
C[N+](C)(C)C[C@H](O)CC(=O)[O-] [Levocarnitine]	15.4
OC(CCN1CCCC1)(c1ccccc1)C1CCCCC1 (stereo unspecified) [Procyclidine]	19.1
CC(C)NCC(O)COc1cccc2[nH]ccc12 (stereo unspecified) [Pindolol]	2.78
CC(CN(C)C)CN1c2ccccc2CCc2ccccc21 (stereo unspecified) [Trimipramine]	100
CC1(C)O[C@@H]2C[C@H]3[C@@H]4C[C@H](F)C5=CC(=O)C=C[C@]5(C)[C@H]4[C@@H](O)C[C@]3(C)[C@]2(C(=O)CO)O1 [Flunisolide]	3.12
CN(Cc1cc(Br)cc(Br)c1N)C1CCCCC1 [Bromhexine]	100
NCCc1ccc(O)c(O)c1 [Dopamine Hydrochloride]	4.35
CC(=O)OCC(=O)[C@@]1(O)CC[C@H]2[C@@H]3CCC4=CC(=O)C=C[C@]4(C)[C@H]3[C@@H](O)C[C@@]21C [Prednisolone Acetate]	0
Cc1ccc(O)c([C@H](CCN(C(C)C)C(C)C)c2ccccc2)c1 [Tolterodine]	2.38
NC[C@H]1CC[C@H](C(=O)O)CC1 [Tranexamic Acid]	17.6
Oc1c(Cl)cc(Cl)cc1Sc1cc(Cl)cc(Cl)c1O [Bithionol]	100
CCCCOc1ccc(CC(=O)NO)cc1 [Bufexamac]	10.4
COc1ccc2nc3cc(Cl)ccc3c(Nc3cc(CN4CCCC4)c(O)c(CN4CCCC4)c3)c2n1 [Pyronaridine Tetraphosphate]	4.88
Cc1c(O)cccc1C(=O)N[C@@H](CSc1ccccc1)[C@H](O)CN1C[C@H]2CCCC[C@H]2C[C@H]1C(=O)NC(C)(C)C [Nelfinavir]	100
CC(C)CCC[C@@H](C)[C@H]1CC[C@H]2[C@@H]3CC=C4C[C@@H](O)CC[C@]4(C)[C@H]3CC[C@]12C [Cholesterol]	7.69
